Experimental data reported in paper doi:10.1101/2021.02.19.431861.
Like-named read-outs stand apart in the source and are kept apart here. These are yes or no findings as the source states them, for the method shown. Binding seen in cells or lysates may run through a third protein. Some results given as binding are weak or reduced against the parent protein; the word gives no strength. For some of these results: Tags and fused reporters may be left off the sequences shown. Values belong to the molecule of their own block, whether it stands above or below them.

The chains behind the UniProt entries cited, without tags or fusion partners. Where a name states a change or a piece, a line headed by the entry shows the natural chain unless it says otherwise. Residues count along the entry.
UniProt Q9BXW4, residues 1-126: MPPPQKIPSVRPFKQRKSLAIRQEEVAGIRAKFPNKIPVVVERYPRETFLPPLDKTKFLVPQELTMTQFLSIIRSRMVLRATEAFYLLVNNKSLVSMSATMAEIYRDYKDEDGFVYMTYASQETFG
UniProt Q8TDY2: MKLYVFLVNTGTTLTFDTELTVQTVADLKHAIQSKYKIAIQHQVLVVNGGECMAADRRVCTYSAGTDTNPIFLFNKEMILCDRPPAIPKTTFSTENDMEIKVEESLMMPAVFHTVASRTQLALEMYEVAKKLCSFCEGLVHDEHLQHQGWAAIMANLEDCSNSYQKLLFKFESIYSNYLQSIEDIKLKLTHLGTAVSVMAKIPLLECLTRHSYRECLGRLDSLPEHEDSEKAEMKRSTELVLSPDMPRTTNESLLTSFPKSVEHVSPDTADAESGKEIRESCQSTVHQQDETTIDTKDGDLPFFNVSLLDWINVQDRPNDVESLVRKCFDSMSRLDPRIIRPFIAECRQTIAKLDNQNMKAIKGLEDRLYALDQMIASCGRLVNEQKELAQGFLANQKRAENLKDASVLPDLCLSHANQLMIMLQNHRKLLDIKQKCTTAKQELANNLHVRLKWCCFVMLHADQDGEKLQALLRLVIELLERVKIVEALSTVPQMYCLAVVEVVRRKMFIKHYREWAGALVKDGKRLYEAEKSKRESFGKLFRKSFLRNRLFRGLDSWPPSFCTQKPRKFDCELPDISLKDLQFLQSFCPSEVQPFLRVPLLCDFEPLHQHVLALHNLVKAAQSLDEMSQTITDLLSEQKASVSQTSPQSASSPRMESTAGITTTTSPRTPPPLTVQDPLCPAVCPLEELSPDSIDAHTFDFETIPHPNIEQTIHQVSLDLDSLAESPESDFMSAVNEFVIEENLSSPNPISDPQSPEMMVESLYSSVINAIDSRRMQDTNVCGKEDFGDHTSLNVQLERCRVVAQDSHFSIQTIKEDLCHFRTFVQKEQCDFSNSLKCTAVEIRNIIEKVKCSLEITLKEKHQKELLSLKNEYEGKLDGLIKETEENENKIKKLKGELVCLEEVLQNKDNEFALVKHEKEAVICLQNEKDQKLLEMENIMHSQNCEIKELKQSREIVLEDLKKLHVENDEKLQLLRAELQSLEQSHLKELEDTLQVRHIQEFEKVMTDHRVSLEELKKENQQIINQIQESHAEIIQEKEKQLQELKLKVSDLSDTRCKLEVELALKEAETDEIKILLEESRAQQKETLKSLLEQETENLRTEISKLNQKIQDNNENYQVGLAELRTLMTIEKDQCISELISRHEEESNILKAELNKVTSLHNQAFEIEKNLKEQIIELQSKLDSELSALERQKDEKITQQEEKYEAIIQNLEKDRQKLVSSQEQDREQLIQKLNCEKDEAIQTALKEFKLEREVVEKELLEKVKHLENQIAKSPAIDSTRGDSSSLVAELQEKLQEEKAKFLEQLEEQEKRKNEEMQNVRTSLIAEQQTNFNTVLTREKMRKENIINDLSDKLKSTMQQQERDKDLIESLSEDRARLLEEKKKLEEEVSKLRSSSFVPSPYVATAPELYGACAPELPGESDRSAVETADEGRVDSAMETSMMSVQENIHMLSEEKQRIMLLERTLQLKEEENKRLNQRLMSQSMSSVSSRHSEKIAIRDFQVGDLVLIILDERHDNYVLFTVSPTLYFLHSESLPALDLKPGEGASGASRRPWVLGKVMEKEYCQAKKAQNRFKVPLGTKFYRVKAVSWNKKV
UniProt Q9H1Y0: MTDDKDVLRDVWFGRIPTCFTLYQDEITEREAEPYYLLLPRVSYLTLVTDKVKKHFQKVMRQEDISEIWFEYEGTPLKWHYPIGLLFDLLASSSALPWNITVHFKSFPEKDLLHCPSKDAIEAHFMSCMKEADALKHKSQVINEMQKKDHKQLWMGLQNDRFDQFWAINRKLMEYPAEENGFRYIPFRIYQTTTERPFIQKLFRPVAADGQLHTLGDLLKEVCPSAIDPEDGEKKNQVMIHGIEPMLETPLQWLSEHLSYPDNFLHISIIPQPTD
UniProt O94817: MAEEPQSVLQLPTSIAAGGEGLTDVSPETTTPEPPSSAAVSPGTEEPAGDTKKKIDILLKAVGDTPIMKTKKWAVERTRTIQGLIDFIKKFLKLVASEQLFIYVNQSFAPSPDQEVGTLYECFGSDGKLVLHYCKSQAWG
UniProt O00443: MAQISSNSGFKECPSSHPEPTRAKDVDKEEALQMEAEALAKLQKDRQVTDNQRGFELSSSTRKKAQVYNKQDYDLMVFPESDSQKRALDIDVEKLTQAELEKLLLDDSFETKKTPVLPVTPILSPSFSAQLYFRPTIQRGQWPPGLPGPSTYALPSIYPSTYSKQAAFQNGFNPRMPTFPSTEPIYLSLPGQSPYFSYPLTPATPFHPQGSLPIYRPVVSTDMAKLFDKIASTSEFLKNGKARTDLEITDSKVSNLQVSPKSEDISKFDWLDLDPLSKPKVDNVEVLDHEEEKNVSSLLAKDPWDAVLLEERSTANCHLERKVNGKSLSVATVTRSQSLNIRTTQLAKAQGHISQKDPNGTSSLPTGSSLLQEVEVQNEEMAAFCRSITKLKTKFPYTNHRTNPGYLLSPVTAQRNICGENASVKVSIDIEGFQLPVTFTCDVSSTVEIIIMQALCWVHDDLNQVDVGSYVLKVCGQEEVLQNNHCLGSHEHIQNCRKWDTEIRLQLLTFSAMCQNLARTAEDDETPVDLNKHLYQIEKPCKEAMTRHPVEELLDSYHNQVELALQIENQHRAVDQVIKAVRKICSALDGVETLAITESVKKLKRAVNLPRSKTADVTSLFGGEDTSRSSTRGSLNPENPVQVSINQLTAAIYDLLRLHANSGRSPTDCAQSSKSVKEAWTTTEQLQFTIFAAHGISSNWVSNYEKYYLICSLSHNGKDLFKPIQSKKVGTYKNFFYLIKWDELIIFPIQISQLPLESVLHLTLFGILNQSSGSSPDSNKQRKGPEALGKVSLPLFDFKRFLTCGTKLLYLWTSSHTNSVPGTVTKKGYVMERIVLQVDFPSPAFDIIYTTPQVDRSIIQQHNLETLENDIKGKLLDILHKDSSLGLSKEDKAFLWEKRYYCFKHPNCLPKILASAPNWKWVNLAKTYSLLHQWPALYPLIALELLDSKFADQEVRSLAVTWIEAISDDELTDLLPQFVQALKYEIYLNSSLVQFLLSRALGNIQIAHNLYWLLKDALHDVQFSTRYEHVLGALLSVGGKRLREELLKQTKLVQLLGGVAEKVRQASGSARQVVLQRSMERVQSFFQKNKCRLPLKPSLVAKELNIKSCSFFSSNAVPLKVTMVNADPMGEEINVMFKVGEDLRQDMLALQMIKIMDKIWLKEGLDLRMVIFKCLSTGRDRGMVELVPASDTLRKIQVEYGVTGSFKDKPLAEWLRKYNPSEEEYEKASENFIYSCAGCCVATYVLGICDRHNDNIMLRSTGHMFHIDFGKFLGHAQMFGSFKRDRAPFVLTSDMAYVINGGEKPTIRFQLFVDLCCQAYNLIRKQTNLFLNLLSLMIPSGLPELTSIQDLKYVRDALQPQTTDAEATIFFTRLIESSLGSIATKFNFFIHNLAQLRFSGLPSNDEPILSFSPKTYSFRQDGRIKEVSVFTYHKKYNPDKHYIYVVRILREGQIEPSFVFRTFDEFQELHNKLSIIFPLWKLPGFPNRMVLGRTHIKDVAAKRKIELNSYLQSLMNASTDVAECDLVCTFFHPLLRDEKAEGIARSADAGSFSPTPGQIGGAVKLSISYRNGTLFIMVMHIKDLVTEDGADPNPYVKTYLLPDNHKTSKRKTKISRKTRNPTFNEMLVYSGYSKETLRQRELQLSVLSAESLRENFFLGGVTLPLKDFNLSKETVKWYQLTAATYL
UniProt Q14457: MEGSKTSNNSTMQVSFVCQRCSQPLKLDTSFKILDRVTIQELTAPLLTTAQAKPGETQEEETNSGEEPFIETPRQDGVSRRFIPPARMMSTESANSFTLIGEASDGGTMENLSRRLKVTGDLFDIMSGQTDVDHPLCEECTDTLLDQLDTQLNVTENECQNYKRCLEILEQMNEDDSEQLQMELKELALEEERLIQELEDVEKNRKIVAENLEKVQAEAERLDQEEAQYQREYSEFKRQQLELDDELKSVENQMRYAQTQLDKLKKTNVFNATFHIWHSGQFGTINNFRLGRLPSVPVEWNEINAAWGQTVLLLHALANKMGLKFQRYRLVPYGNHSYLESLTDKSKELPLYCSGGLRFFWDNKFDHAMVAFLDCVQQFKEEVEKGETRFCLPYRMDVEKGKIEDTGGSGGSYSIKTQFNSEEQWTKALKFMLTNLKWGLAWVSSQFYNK

What was measured:
Assay in all cases: co-IP
[1] = target: FLAG-tagged LC3C C127Stop (UniProt Q9BXW4)
[2] = target: FIP200 (endogenous) (human (endogenous in Caki-1, HEK293T)) (UniProt Q8TDY2)
HA-ATG13 [3] = target: T1, HA-ATG13 (UniProt O75143)
T1 sequence: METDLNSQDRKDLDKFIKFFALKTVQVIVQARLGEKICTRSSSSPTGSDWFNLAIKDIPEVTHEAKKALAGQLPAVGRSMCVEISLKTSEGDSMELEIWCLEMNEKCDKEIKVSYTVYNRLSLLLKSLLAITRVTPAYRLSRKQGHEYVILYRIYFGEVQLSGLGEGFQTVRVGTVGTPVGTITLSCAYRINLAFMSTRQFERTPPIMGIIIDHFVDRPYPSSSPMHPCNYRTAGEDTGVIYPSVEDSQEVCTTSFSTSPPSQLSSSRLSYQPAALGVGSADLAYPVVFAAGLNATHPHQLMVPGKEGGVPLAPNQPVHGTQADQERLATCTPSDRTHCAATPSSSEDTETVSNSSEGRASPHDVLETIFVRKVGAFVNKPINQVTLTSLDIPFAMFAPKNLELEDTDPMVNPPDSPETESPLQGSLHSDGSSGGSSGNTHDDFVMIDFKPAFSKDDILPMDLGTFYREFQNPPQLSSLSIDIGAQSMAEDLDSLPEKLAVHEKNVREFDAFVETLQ

[4] = target: T2, UVRAG (endogenous) (human (endogenous in 786-O VHL(+), Caki-1, HEK293T)) (UniProt Q9P2Y5)
T2 sequence: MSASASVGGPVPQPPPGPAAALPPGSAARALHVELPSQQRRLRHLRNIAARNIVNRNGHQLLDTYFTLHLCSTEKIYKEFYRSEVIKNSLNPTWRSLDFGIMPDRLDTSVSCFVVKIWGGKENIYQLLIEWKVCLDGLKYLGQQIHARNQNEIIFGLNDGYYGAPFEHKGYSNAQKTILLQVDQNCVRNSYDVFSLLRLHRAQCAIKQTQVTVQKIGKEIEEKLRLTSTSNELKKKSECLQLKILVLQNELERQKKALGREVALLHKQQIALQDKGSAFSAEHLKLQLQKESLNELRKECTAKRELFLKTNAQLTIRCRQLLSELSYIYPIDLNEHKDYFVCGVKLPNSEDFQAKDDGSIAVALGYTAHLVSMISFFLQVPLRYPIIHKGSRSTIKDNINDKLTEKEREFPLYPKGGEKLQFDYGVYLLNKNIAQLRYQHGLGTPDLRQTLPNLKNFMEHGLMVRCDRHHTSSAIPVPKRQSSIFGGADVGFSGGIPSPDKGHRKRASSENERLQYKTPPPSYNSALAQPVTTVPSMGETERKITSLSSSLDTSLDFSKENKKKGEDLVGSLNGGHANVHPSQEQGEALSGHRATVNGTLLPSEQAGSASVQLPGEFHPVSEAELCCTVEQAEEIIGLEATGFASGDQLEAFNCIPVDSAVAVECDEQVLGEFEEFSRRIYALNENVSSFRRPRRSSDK

[5] = target: FIP200 (HEK293 cells transfected with the indicated constructs, Figure 3H) (UniProt Q8TDY2)
[6] = target: FIP200 (HEK293 cells transfected with the indicated constructs, Figure 3H) (UniProt Q8TDY2); remark: listed apart in the source
[7] = target: FIP200 (endogenous) (human (endogenous in Caki-1, HEK293T)) (UniProt Q8TDY2); remark: listed apart in the source
HA-ATG13 [8] = target: T1, HA-ATG13; remark: listed apart in the source
[9] = target: T3, Strawberry-tagged ULK3 (STR-ULK3) (UniProt Q6PHR2)
T3 sequence: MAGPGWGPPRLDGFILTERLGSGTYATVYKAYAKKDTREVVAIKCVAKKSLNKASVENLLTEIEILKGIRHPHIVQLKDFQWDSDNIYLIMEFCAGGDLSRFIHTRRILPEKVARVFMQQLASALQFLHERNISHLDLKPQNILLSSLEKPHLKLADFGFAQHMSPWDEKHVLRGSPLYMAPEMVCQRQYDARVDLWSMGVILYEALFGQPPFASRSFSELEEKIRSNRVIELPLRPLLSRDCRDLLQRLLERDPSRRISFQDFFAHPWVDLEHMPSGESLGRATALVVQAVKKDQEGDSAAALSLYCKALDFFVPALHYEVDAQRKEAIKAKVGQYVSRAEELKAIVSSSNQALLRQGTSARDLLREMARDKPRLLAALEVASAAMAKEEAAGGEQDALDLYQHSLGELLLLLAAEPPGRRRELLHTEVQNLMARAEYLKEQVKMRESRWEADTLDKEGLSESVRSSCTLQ

Molecule: ATG5-12 conjugate (from UniProt Q9H1Y0;O94817) (complex)
binding [1]: binds

Molecule: PIK3C2A (endogenous) (from UniProt O00443 1-1686)
binding [4]: binds

Molecule: BECN1 (endogenous) (from UniProt Q14457 1-450)
binding [1]: binds

B1: ULK3 (HEK293 cells transfected with the indicated constructs, Figure 3H) (protein, UniProt Q6PHR2 1-472)
chain: MAGPGWGPPRLDGFILTERLGSGTYATVYKAYAKKDTREVVAIKCVAKKSLNKASVENLLTEIEILKGIRHPHIVQLKDFQWDSDNIYLIMEFCAGGDLSRFIHTRRILPEKVARVFMQQLASALQFLHERNISHLDLKPQNILLSSLEKPHLKLADFGFAQHMSPWDEKHVLRGSPLYMAPEMVCQRQYDARVDLWSMGVILYEALFGQPPFASRSFSELEEKIRSNRVIELPLRPLLSRDCRDLLQRLLERDPSRRISFQDFFAHPWVDLEHMPSGESLGRATALVVQAVKKDQEGDSAAALSLYCKALDFFVPALHYEVDAQRKEAIKAKVGQYVSRAEELKAIVSSSNQALLRQGTSARDLLREMARDKPRLLAALEVASAAMAKEEAAGGEQDALDLYQHSLGELLLLLAAEPPGRRRELLHTEVQNLMARAEYLKEQVKMRESRWEADTLDKEGLSESVRSSCTLQ
binding [6]: binds

B5: CEP55 (endogenous) (protein, UniProt Q53EZ4 1-464)
chain: MSSRSTKDLIKSKWGSKPSNSKSETTLEKLKGEIAHLKTSVDEITSGKGKLTDKERHRLLEKIRVLEAEKEKNAYQLTEKDKEIQRLRDQLKARYSTTTLLEQLEETTREGERREQVLKALSEEKDVLKQQLSAATSRIAELESKTNTLRLSQTVAPNCFNSSINNIHEMEIQLKDALEKNQQWLVYDQQREVYVKGLLAKIFELEKKTETAAHSLPQQTKKPESEGYLQEEKQKCYNDLLASAKKDLEVERQTITQLSFELSEFRRKYEETQKEVHNLNQLLYSQRRADVQHLEDDRHKTEKIQKLREENDIARGKLEEEKKRSEELLSQVQFLYTSLLKQQEEQTRVALLEQQMQACTLDFENEKLDRQHVQHQLHVILKELRKARNQITQLESLKQLHEFAITEPLVTFQGETENREKVAASPKSPTAALNESLVECPKCNIQYPATEHRDLLVHVEYCSK
binding [9]: binds

Continued, values first:

binding [1]: binds
Molecule: FIP200 (endogenous) (from UniProt Q8TDY2 1-1594)

binding [2]: binds
binding (HA-ATG13 [3]): binds
Molecule: MAP1LC3C (LC3C), endogenous (from UniProt Q9BXW4 1-126)

binding [5]: binds
Molecule: LC3C (HEK293 cells transfected with the indicated constructs, Figure 3H) (from UniProt Q9BXW4 1-126)

binding [7]: binds
binding (HA-ATG13 [8]): binds
B2: ULK3 (endogenous) (protein, UniProt Q6PHR2 1-472)
chain: MAGPGWGPPRLDGFILTERLGSGTYATVYKAYAKKDTREVVAIKCVAKKSLNKASVENLLTEIEILKGIRHPHIVQLKDFQWDSDNIYLIMEFCAGGDLSRFIHTRRILPEKVARVFMQQLASALQFLHERNISHLDLKPQNILLSSLEKPHLKLADFGFAQHMSPWDEKHVLRGSPLYMAPEMVCQRQYDARVDLWSMGVILYEALFGQPPFASRSFSELEEKIRSNRVIELPLRPLLSRDCRDLLQRLLERDPSRRISFQDFFAHPWVDLEHMPSGESLGRATALVVQAVKKDQEGDSAAALSLYCKALDFFVPALHYEVDAQRKEAIKAKVGQYVSRAEELKAIVSSSNQALLRQGTSARDLLREMARDKPRLLAALEVASAAMAKEEAAGGEQDALDLYQHSLGELLLLLAAEPPGRRRELLHTEVQNLMARAEYLKEQVKMRESRWEADTLDKEGLSESVRSSCTLQ

binding [9]: binds
B3: CYK4 (endogenous) (protein, UniProt Q9H0H5 1-632)
chain: MDTMMLNVRNLFEQLVRRVEILSEGNEVQFIQLAKDFEDFRKKWQRTDHELGKYKDLLMKAETERSALDVKLKHARNQVDVEIKRRQRAEADCEKLERQIQLIREMLMCDTSGSIQLSEEQKSALAFLNRGQPSSSNAGNKRLSTIDESGSILSDISFDKTDESLDWDSSLVKTFKLKKREKRRSTSRQFVDGPPGPVKKTRSIGSAVDQGNESIVAKTTVTVPNDGGPIEAVSTIETVPYWTRSRRKTGTLQPWNSDSTLNSRQLEPRTETDSVGTPQSNGGMRLHDFVSKTVIKPESCVPCGKRIKFGKLSLKCRDCRVVSHPECRDRCPLPCIPTLIGTPVKIGEGMLADFVSQTSPMIPSIVVHCVNEIEQRGLTETGLYRISGCDRTVKELKEKFLRVKTVPLLSKVDDIHAICSLLKDFLRNLKEPLLTFRLNRAFMEAAEITDEDNSIAAMYQAVGELPQANRDTLAFLMIHLQRVAQSPHTKMDVANLAKVFGPTIVAHAVPNPDPVTMLQDIKRQPKVVERLLSLPLEYWSQFMMVEQENIDPLHVIENSNAFSTPQTPDIKVSLLGPVTTPEHQLLKTPSSSSLSQRVRSTLTKNTPRFGSKSKSATNLGRQGNFFASPMLK

binding [9]: binds
B4: MKLP1 (endogenous) (protein, UniProt Q02241 1-960)
chain: MKSARAKTPRKPTVKKGSQTNLKDPVGVYCRVRPLGFPDQECCIEVINNTTVQLHTPEGYRLNRNGDYKETQYSFKQVFGTHTTQKELFDVVANPLVNDLIHGKNGLLFTYGVTGSGKTHTMTGSPGEGGLLPRCLDMIFNSIGSFQAKRYVFKSNDRNSMDIQCEVDALLERQKREAMPNPKTSSSKRQVDPEFADMITVQEFCKAEEVDEDSVYGVFVSYIEIYNNYIYDLLEEVPFDPIKPKPPQSKLLREDKNHNMYVAGCTEVEVKSTEEAFEVFWRGQKKRRIANTHLNRESSRSHSVFNIKLVQAPLDADGDNVLQEKEQITISQLSLVDLAGSERTNRTRAEGNRLREAGNINQSLMTLRTCMDVLRENQMYGTNKMVPYRDSKLTHLFKNYFDGEGKVRMIVCVNPKAEDYEENLQVMRFAEVTQEVEVARPVDKAICGLTPGRRYRNQPRGPVGNEPLVTDVVLQSFPPLPSCEILDINDEQTLPRLIEALEKRHNLRQMMIDEFNKQSNAFKALLQEFDNAVLSKENHMQGKLNEKEKMISGQKLEIERLEKKNKTLEYKIEILEKTTTIYEEDKRNLQQELETQNQKLQRQFSDKRRLEARLQGMVTETTMKWEKECERRVAAKQLEMQNKLWVKDEKLKQLKAIVTEPKTEKPERPSRERDREKVTQRSVSPSPVPLSSNYIAQISNGQQLMSQPQLHRRSNSCSSISVASCISEWEQKIPTYNTPLKVTSIARRRQQEPGQSKTCIVSDRRRGMYWTEGREVVPTFRNEIEIEEDHCGRLLFQPDQNAPPIRLRHRRSRSAGDRWVDHKPASNMQTETVMQPHVPHAITVSVANEKALAKCEKYMLTHQELASDGEIETKLIKGDIYKTRGGGQSVQFTDIETLKQESPNGSRKRRSSTVAPAQPDGAESEWTDVETRCSVAVEMRAGSQLGPGYQHHAQPKRKKP
